In patent publication US8791158B2, “Methods of treating meibomian gland dysfunction” (GTX, Inc., priority 2010, dated 2014):
Some of these results come from one statement about several compounds together.

System: orchiectomized (ORX) rabbits
Assay: Dose effect on palmitate:stearate ratio in tears, harderian and Meibomian glands, Example 5
Assay type: in vivo, rabbit
Settings: topical doses used (0.625, 1.25 mg/kg)
From the text: The goal of this study was to determine the effect of dosage amounts of Compounds 1 and 2 on tear composition.
Thirty New Zealand white rabbits weighing approximately 3 lbs were allowed to acclimate for two weeks before the start of the study Animals were weighed on day 0 of the study, randomized according to body weight and allotted to the following orchiectomized (ORX) dose groups:
Surgeries for the study were staggered to limit the maximum number of surgeries per day to six. One animal from each group was entered into the study every day and castration was performed as described below. Animals were premedicated with glycopyrrolate (0.02 mg/kg) and anesthesia was induced with a combination of ketamine (15 mg/kg): medetomidine (0.25 mg/kg). Anesthesia was maintained with isoflurane (1 liter/hr). Orchiectomy was performed using a scrotal incision. […]
Immediately after recovery from anesthesia, the animals were dosed with the appropriate test articles as indicated above. […] Area under the curve for each individual peak was determined using the GC ChemStation software. To normalize for the tear content, the lipid composition was expressed as a ratio of the lipid that was most affected by castration (palmitate) to one which remained relatively constant (stearate).
At the end of the study, the animals were euthanatized. […] Samples were stored at −80 C until ready to ship for analysis. […]

**Q.** `C[C@](O)(COc1ccc(C#N)cc1)C(=O)Nc1ccc(C#N)c(C(F)(F)F)c1` [Compound 1, (S)—N-(4-Cyano-3-(trifluoromethyl)phenyl)-3-(4-cyanophenoxy)-2-hydroxy-2-methylpropanamide] was tested. Which “Stimulation of lipid production in the harderian gland compared to placebo vehicle treated animals” value did it give?
**A.** 2-3 fold

**Q.** `C[C@](O)(COc1ccc(C#N)c(F)c1)C(=O)Nc1ccc(C#N)c(C(F)(F)F)c1` [Compound 2, (S)—N-(4-cyano-3-(trifluoromethyl)phenyl)-3-(4-cyano-3-fluorophenoxy)-2-hydroxy-2-methylpropanamide] was tested. Which “Stimulation of lipid production in the harderian gland compared to placebo vehicle treated animals” value did it give?
**A.** 2-3 fold
